{"source": "patent US20030078272A1", "about": "“Methods of use of fluoroquinolone compounds against ciprofloxacin-resistant and ciprofloxacin-sensitive pathogenic bacteria” (SmithKline Beecham Corporation, priority 1999, published 2003)", "origin": "cited, not measured here", "system": "pneumococci", "conditions": "MICs clustering around the breakpoints (Pankuch et al. 1995); cited from earlier work", "note": "For at least one compound, name, drawing or mass did not settle the structure."}
{"smiles": "CC1COc2c(N3CCN(C)CC3)c(F)cc3c(=O)c(C(=O)O)cn1c23", "note": "(stereo not shown) [ofloxacin]", "values": [{"measurement": "in vitro activity against pneumococci", "value": "moderate in vitro activity"}]}
